At least one compound was matched to its structure with a doubt left.
System: P. aeruginosa
Assay: Experiment 2 screening for antibiotic effect, P. aeruginosa
Assay type: cell-based, Pseudomonas aeruginosa
Settings: 7 h post inoculation
Description: The second experiment consisted of a screening for antibiotic effect of individual and combined substances. The materials that were used were:
The method involved the use of a microtiter (ELISA) plate (12×8 wells, i.e 96 wells in total, obtained from NUNC) with serial dilutions of venoms and bacteria at two concentrations.
The incubation time was 24 hours. OD was monitored at 650 nm every hour the first 7-8 hours, and then at 20 hours and 24 hours post inoculation. Each well was given 200 μl of diluted venom plus bacteria.
Three-dimensional diagrams shown as FIG. 3 to 11 summarize the above results. Observe that in each diagram serge 1 (Z axis) is substance BF, serie 2 is NK, 3 is OH, 4 is BA, 5 is TA, 6 is OH+BA, 7 is OH+TA and serie 8 is reference antibiotic. On the X-axis 1-5 is concentration of substance: 500, 250, 125, 62.5 och 31.2 mikrog/ml for substances (N.B. OH+BA and OH+TA have the double concentrations, i.e. the concentration is 1000, 500, 250, 125 and 62.5 ), and 100, 50, 25, 12.5, 6.25 mikrog/ml for reference antibiotic. The name on the diagrams is the tested bacteria strain (initials only given) and time is 7 hours after incubation start at which the substance was added. The combined OH+BA and OH+TA were obtained by mixing the single venoms in the same proportions.

For `NC[C@H]1O[C@H](O[C@H]2[C@H](O)[C@@H](O[C@H]3O[C@H](CO)[C@@H](O)[C@H](N)[C@H]3O)[C@H](N)C[C@@H]2N)[C@H](O)[C@@H](O)[C@@H]1O` [Kanamycin], the antibacterial effect was “almost no effect”.

— patent US20020031509A1, “Pharmaceutical composition and method for its manufacture” (priority 1999, published 2002)
